Measured values: PMC10223884, “Oligosaccharide Ligands of Galectin-4 and Its Subunits: Multivalency Scores Highly” (Molecules, 2023)
No constants are given. Whether binding was seen depends on the method and setting. Some binding calls cover weakened binding; strength is not graded here.

T1: asialofetuin (standard glycoprotein, MW 48.4 kDa) (UniProt P12763)
T1 sequence (chain, glycoprotein without sialic acid; carries up to nine LacNAc epitopes): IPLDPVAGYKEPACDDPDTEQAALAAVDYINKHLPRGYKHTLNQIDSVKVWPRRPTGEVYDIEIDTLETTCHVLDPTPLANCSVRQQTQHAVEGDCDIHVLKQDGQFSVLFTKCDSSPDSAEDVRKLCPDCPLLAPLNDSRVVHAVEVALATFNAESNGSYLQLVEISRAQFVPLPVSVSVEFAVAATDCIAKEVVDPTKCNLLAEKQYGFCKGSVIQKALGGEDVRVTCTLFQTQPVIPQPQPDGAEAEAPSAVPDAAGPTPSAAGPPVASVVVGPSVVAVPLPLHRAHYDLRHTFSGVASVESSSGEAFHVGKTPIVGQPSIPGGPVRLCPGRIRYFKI

B1: Galectin-4 (whole, His6-tagged construct of human Gal-4) (natural protein, UniProt P56470 1-323, looked up)
chain: MAYVPAPGYQPTYNPTLPYYQPIPGGLNVGMSVYIQGVASEHMKRFFVNFVVGQDPGSDVAFHFNPRFDGWDKVVFNTLQGGKWGSEERKRSMPFKKGAAFELVFIVLAEHYKVVVNGNPFYEYGHRLPLQMVTHLQVDGDLQLQSINFIGGQPLRPQGPPMMPPYPGPGHCHQQLNSLPTMEGPPTFNPPVPYFGRLQGGLTARRTIIIKGYVPPTGKSFAINFKVGSSGDIALHINPRMGNGTVVRNSLLNGSWGSEEKKITHNPFGPGQFFDLSIRCGLDRFKVYANGQHLFDFAHRLSAFQRVDTLEIQGDVTLSYVQI
notes: Galectin-4, human, whole protein (two CRDs joined by the linker peptide); also called whole Gal-4; total Gal-4; not shown: His6, N-terminal, kept
B2: N-terminal subunit of Gal-4 with 10 linker residues (Gal-4NL, aa 1-160) (domain or fragment, human, UniProt P56470 1-160, looked up)
chain: MAYVPAPGYQPTYNPTLPYYQPIPGGLNVGMSVYIQGVASEHMKRFFVNFVVGQDPGSDVAFHFNPRFDGWDKVVFNTLQGGKWGSEERKRSMPFKKGAAFELVFIVLAEHYKVVVNGNPFYEYGHRLPLQMVTHLQVDGDLQLQSINFIGGQPLRPQGP
notes: Galectin-4, human, N-terminal CRD (aa 1-150) with 10 further residues of the inter-domain linker at the C-terminus (aa 1-160); made by PCR from the Gal-4 plasmid, NdeI/XhoI; not shown: His6, N-terminal, kept
B3: C-terminal subunit of Gal-4 with 10 linker residues (Gal-4CL, aa 169-323) (domain or fragment, human, UniProt P56470 169-323, looked up)
chain: PGHCHQQLNSLPTMEGPPTFNPPVPYFGRLQGGLTARRTIIIKGYVPPTGKSFAINFKVGSSGDIALHINPRMGNGTVVRNSLLNGSWGSEEKKITHNPFGPGQFFDLSIRCGLDRFKVYANGQHLFDFAHRLSAFQRVDTLEIQGDVTLSYVQI
notes: Galectin-4, human, C-terminal CRD (aa 179-323) with 10 further residues of the inter-domain linker at the N-terminus (aa 169-323); made by PCR from the Gal-4 plasmid, NdeI/XhoI; not shown: His6, N-terminal, kept

Molecular target: T1, asialofetuin (standard glycoprotein, MW 48.4 kDa)
Assay: ELISA; competitive ELISA; ASF (0.1 µM) coated; serial dilutions of inhibitor in EPBS (PBS with 2 mM EDTA) with Gal-4 (2.5 µM) or Gal-4NL/Gal-4CL (25 µM), 2 h; bound galectin detected with HRP-conjugated anti-His antibody; both purified

binding, binds:
B1
B2
B3
